Values quoted from earlier work in patent US20040266843A1, “Sulfonamide substituted indolinones as inhibitors of DNA dependent protein kinase (DNA-PK)” (Sugen, Inc., priority 2003, published 2004).
At least one structure is not confirmed: it was looked up by name or label, or the drawing left a doubt.

The chains behind the UniProt entries cited, without tags or fusion partners.
UniProt P78527, whole entry: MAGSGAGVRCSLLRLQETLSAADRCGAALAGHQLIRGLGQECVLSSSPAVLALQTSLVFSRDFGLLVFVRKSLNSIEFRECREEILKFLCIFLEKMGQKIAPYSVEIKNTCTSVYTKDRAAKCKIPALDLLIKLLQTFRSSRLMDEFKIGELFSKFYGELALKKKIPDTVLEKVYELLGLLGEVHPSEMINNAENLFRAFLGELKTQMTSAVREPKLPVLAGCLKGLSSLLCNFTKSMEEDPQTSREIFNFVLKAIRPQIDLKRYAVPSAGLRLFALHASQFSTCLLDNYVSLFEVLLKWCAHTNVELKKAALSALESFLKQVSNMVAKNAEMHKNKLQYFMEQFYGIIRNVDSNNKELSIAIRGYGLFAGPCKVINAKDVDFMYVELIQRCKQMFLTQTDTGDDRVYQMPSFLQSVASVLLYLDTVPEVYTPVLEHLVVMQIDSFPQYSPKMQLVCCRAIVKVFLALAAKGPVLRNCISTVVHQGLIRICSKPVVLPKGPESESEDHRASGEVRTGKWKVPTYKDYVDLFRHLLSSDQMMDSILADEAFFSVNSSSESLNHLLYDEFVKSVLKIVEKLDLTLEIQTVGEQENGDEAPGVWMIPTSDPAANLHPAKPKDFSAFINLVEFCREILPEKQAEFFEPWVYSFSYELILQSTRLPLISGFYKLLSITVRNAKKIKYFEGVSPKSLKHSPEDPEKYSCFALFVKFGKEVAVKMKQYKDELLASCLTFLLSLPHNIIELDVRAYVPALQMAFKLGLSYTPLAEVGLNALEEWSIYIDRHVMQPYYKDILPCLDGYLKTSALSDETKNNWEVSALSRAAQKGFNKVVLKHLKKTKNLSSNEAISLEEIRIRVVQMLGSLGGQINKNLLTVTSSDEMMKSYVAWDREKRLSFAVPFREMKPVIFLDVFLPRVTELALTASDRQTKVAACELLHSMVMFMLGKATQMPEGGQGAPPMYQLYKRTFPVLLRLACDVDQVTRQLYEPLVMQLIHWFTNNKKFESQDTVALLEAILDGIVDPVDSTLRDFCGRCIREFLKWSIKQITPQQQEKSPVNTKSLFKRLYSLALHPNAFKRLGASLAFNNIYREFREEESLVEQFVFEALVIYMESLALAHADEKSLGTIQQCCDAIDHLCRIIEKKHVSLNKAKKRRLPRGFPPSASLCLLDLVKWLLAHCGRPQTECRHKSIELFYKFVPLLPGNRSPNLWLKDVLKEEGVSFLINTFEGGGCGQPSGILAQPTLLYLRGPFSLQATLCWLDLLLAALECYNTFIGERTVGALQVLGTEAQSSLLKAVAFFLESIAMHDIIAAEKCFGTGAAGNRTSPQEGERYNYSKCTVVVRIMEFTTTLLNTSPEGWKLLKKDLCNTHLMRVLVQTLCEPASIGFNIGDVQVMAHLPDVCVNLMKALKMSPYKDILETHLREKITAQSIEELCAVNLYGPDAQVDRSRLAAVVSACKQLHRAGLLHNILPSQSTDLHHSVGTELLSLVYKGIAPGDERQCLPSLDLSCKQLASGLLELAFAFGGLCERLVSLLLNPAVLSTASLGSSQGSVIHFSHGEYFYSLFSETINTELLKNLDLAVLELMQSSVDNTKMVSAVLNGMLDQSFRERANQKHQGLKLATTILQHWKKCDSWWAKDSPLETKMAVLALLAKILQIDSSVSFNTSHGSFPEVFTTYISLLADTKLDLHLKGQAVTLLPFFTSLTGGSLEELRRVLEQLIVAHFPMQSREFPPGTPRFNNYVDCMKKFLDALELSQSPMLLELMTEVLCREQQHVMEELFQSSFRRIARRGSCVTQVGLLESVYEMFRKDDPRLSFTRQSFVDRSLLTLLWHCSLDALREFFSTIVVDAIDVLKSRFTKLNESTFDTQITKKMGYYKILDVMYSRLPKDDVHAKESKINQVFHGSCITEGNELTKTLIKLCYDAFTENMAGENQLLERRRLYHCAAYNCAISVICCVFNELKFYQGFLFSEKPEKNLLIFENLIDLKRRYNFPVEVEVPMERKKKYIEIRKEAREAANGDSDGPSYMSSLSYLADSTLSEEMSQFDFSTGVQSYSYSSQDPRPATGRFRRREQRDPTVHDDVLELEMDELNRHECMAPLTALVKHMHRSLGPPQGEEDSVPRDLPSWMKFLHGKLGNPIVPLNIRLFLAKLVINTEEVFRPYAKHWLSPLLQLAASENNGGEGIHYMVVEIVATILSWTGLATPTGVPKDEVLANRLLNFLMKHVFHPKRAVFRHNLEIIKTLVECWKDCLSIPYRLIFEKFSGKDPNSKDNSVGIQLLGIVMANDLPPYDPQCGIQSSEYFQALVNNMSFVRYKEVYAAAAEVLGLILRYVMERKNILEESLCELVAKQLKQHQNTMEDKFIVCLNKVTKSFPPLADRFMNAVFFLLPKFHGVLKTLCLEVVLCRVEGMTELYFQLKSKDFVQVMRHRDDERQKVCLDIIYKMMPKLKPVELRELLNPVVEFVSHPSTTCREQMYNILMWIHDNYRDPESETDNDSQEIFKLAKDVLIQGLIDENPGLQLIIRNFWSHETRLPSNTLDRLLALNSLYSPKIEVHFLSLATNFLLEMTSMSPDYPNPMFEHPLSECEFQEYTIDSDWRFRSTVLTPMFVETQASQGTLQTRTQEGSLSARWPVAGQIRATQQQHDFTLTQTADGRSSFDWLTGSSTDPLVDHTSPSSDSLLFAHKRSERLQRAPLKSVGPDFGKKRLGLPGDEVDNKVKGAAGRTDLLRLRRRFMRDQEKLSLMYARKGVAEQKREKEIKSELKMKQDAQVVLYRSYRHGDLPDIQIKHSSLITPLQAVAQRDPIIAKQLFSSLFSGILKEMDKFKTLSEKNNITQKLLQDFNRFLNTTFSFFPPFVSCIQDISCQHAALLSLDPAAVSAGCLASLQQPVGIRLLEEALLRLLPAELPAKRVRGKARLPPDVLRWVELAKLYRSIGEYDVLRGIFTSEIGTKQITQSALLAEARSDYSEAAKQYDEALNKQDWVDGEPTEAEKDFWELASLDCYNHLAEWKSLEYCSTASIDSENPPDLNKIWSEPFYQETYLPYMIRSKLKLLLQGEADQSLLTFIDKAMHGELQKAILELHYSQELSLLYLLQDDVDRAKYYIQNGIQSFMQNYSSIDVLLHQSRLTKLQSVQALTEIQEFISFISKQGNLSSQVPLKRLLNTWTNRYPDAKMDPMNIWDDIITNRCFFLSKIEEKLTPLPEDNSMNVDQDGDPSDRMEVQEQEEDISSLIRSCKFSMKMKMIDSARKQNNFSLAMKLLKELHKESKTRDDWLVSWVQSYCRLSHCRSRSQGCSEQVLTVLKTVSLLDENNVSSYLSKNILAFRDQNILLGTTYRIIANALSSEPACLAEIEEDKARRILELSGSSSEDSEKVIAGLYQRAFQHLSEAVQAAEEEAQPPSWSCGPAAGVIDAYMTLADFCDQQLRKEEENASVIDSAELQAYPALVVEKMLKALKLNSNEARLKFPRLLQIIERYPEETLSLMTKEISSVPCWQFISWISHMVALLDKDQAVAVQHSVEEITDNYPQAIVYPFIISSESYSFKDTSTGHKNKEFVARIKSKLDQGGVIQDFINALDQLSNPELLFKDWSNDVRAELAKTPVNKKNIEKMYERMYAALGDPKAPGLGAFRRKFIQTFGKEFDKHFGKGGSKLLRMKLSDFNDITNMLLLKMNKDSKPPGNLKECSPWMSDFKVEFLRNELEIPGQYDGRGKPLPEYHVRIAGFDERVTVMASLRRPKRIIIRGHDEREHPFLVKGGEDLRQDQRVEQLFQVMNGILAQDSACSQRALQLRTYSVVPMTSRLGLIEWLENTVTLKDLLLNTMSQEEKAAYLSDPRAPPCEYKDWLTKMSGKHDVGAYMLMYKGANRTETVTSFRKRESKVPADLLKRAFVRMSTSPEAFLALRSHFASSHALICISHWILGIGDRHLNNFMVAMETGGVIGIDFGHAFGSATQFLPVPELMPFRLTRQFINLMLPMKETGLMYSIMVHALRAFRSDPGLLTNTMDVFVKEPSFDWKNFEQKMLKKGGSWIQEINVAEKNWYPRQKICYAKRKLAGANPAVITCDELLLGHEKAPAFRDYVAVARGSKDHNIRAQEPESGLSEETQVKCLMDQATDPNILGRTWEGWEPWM

Experiments:
[1] = biological target: DNA-dependent protein kinase (Homo sapiens, UniProt P78527); details: Cancer Research, vol. 59, pages 2581-2586 (1999); cited from earlier work
cells = details: cited from earlier work

What does the source list for `COC[C@H]1OC(=O)c2coc3c2[C@@]1(C)C1=C(C3=O)[C@@H]2CCC(=O)[C@@]2(C)C[C@H]1OC(C)=O` [wortmannin]?
mode of inhibition [1]: non-competitive inhibitor; sensitization of cells to ionizing radiation (cells): 2-5 fold
